Among the data in publication PMC4394352 are binding values, retold here.

Results are given in words; binding and its absence hold for the method and conditions named. For some assays here: In cells and extracts the contact can be indirect. Some binding calls cover weakened binding; strength is not graded here. For some assays here: Where a sequence is shown, tags or fusion partners need not be part of it.

For assay [1], the target named is T1, PPP1R15B(631–701) (human) (UniProt Q5SWA1).
T1 sequence: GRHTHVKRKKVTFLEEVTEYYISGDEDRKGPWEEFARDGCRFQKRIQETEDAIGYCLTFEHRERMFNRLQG
Put plainly: SEC; ternary complex: stoichiometric binary complex on glutathione-sepharose resin incubated with latrunculin B-blocked G-actin 90–120 min at 4°C, eluted, TEV-cleaved, tandem Superdex 75/200 SEC; fractions on Coomassie-stained SDS-PAGE; both purified. (SEC sorts molecules by how far they enter the pores of the column.)

Assay [2] concerns the target T2, PPP1R15B(631–701–H6) (human) (UniProt Q5SWA1).
T2 sequence: T1 sequence
Put plainly: crystal structure; ternary complex PP1G(1–323)-PPP1R15B(631–701–H6)-actin; 0.2 M CaCl2, 0.1 M Hepes pH 7.0, 20% PEG6000; molecular replacement; 7.9 Å; both purified.

Assay [3] addresses T3, PPP1R15B(630–701) (human) (UniProt Q5SWA1).
T3 sequence: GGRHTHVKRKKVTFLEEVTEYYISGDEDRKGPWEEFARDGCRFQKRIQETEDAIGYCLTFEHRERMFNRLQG
Put plainly: SEC; binary complex after TEV cleavage of GST; tandem Superdex 75 and Superdex 200 10/300 with a GSTrap 4B column at the outflow; 20 mM HEPES, 100 mM NaCl, 0.1 mM MgCl2, 0.5 mM MnCl2, 0.1 mM ADP, 0.2 mM TCEP; both purified.

Assay [4] deals with T4, PPP1R15B(631–701)-MBP (human) (UniProt Q5SWA1).
T4 sequence: T1 sequence
Described as above.

The target of assay [5] is T5, PPP1R15B(631–669) (human) (UniProt Q5SWA1).
T5 sequence: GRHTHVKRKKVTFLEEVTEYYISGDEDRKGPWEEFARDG
Put plainly: crystal structure; binary complexes PP1G(7–300)-PPP1R15B(631–660, 631–669 or 631–684); sitting drops; molecular replacement; 1.55–1.85 Å; both purified.

The target in assay [6] is T6, PPP1R15B(631–684) (human) (UniProt Q5SWA1).
T6 sequence: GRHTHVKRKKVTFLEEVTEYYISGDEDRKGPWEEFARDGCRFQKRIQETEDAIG
Described as above.

In assay [7] the target is T7, PPP1R15B(631–660) (human) (UniProt Q5SWA1).
T7 sequence: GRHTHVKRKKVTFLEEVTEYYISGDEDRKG
The assay is described as above.

Assay [8] concerns the target T8, GST-PPP1R15B(630–701) (human) (UniProt Q5SWA1).
T8 sequence: T3 sequence
Put plainly: pull-down; GST-PPP1R15 functional core and untagged PP1 co-expressed in E. coli; clarified lysate bound to glutathione sepharose 4B at 4°C, washed in 50 mM Tris pH 7.4, 500 mM NaCl, eluted with 40 mM GSH.

As to “PP1G(7–323) (from UniProt P63087 7-323) (enzyme)”, in assay [1], the binding entry is on record as “binds”.
On to “PP1G(1–323) (from UniProt P63087 1-323) (enzyme)”, for which the binding entry in assay [2] is “binds”.
On to “PP1G(7–300) (from UniProt P63087 7-300) (enzyme)”, for which the binding entry in assay [3], in assay [4], in assay [5], in assay [6], in assay [7] and in assay [8] was “binds” each time.
